The values below come from patent publication US20090305962A1.

Chains of the proteins cited; added tags and fusions are not shown. Lines headed by an entry give the natural chain unless they say otherwise; changes in a name come on top.
UniProt P05231: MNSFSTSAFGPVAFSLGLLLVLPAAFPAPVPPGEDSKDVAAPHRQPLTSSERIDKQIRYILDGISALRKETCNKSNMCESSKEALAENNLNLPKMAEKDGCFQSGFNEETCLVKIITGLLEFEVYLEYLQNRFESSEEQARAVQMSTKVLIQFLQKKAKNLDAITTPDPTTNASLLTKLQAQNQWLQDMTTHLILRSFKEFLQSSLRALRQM

No constants are given. Whether binding was seen depends on the method and setting. Some results given as binding are weak or reduced against the parent protein; the word gives no strength.

The target in test [1] is human IL-6 (human) (UniProt P05231). The test can be described thus: ELISA on IL-6 (also TF1 cell assay). For orientation: ELISA stands for enzyme-linked immunosorbent assay.
Test [2] shares this target. The test can be described thus: panning and screening on IL-6.

B1: SEQ ID NO 909 (designed binder)
chain: CPRTSSAAATANAIHGPGFATAILICPDDSDEDGCPPRTCSPNQFQCGSGYCISQRWVCDGEIDCEDGSDEANCAGSVPKCPSDAFRCRNGRCIPRAWRCDGINDCVDNSDEEECREHT
In the case of B1, in test [1], the binding entry is “binds”.

B2: SEQ ID NO 928 (designed binder)
chain: B1 chain
For the molecule B2, in test [1], the binding entry is listed as “binds”.

B3: SEQ ID NO 910 (designed binder)
chain: B1 chain
Turning to B3, the binding entry in test [1] was “binds”. Consider CPSSQFQCSSGWCIPEDWRCDGVPDCGDGSDEASDH (designed binder) [SEQ ID NO 566], for which the binding entry in test [2] is reported as “binds”.

For CAPSQFQCGSGYCIPLTWVRDGVDDCEDGSDEEDCSQDPEFHKV (designed binder) [SEQ ID NO 567], in test [2], the binding result is listed as “binds”.

B4: SEQ ID NO 917 (designed binder)
chain: CPSPVPVRQRPLRSTGLGLRRRQCLSDDSDEEGCPARTCGPGQFQCGSGYCISQRWVCDGENDCEDGSDEANCAGSVPTCTSDEFRCRNGRCIPRAWRCDGVKDCADNSDEEPCKEHQ
Consider B4, for which the binding result in test [1] is “binds”.
